{"source": "PubChem BioAssay AID1224830 | NIAID, 2016", "test": "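Host factors that control LPS-induced TNF expression in human macrophages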 (primary screen)", "system": "human THP-1 monocytic leukaemia cells, TNF dual-luciferase reporter clone, PMA-differentiated to macrophage-like cells", "knock-down reagent": "siRNA pool against human genes, 50 nM", "timing": "LPS for 4 h, given about 3 days after siRNA transfection", "conditions": "bacterial LPS (TLR4 ligand), 10 ng/ml", "measurement": "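Ratio of firefly to renilla light, scaled to the plate median and expressed as a robust z-score per replicate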", "reading the numbers": "TNF reporter robust z-score: higher = stronger TNF reporter response to LPS", "hit rule": "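a well is active when its z-score exceeds 2.8 or falls below -1.5; control wells carry no call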", "note": "The deposit covers about 18,000 reagents; shown is an unselected part. About 2,900 of all reagents (16%) count as active. 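Calls are made per well; low scores hint the gene aids the LPS response, high scores that it dampens it.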 Entries without a mark were called inactive. Repeated entries: four replicate wells of each siRNA pool."}
{"target":"PRMT2IP (GeneID 56905)","PubChem SID":"SID315458149","TNF reporter robust z-score":-0.46}
{"target":"PRMT2IP (GeneID 56905)","PubChem SID":"SID315458149","TNF reporter robust z-score":0.65}
{"target":"PRMT2IP (GeneID 56905)","PubChem SID":"SID315458149","TNF reporter robust z-score":-0.24}
{"target":"PRMT2IP (GeneID 56905)","PubChem SID":"SID315458149","TNF reporter robust z-score":-0.45}
{"target":"KLC4 (GeneID 89953)","PubChem SID":"SID315460769","TNF reporter robust z-score":0.31}
{"target":"KLC4 (GeneID 89953)","PubChem SID":"SID315460769","TNF reporter robust z-score":1.64}
{"target":"KLC4 (GeneID 89953)","PubChem SID":"SID315460769","TNF reporter robust z-score":-0.18}
{"target":"KLC4 (GeneID 89953)","PubChem SID":"SID315460769","TNF reporter robust z-score":1.66}
{"target":"SVOPL (GeneID 136306)","PubChem SID":"SID315462009","TNF reporter robust z-score":0.2}
{"target":"SVOPL (GeneID 136306)","PubChem SID":"SID315462009","TNF reporter robust z-score":0.67}
{"target":"SVOPL (GeneID 136306)","PubChem SID":"SID315462009","TNF reporter robust z-score":0.05}
{"target":"SVOPL (GeneID 136306)","PubChem SID":"SID315462009","TNF reporter robust z-score":-0.92}
{"target":"XKR3 (GeneID 150165)","PubChem SID":"SID315462439","TNF reporter robust z-score":-0.3}
{"target":"XKR3 (GeneID 150165)","PubChem SID":"SID315462439","TNF reporter robust z-score":0.14}
{"target":"XKR3 (GeneID 150165)","PubChem SID":"SID315462439","TNF reporter robust z-score":-0.55}
{"target":"XKR3 (GeneID 150165)","PubChem SID":"SID315462439","TNF reporter robust z-score":-0.01}
{"target":"RASL11B (GeneID 65997)","PubChem SID":"SID315459125","TNF reporter robust z-score":0.53}
{"target":"RASL11B (GeneID 65997)","PubChem SID":"SID315459125","TNF reporter robust z-score":0.39}
{"target":"RASL11B (GeneID 65997)","PubChem SID":"SID315459125","TNF reporter robust z-score":0.62}
{"target":"RASL11B (GeneID 65997)","PubChem SID":"SID315459125","TNF reporter robust z-score":0.54}
{"target":"OR5L1 (GeneID 219437)","PubChem SID":"SID315463164","TNF reporter robust z-score":0.25}
{"target":"OR5L1 (GeneID 219437)","PubChem SID":"SID315463164","TNF reporter robust z-score":-0.3}
{"target":"OR5L1 (GeneID 219437)","PubChem SID":"SID315463164","TNF reporter robust z-score":-0.05}
{"target":"OR5L1 (GeneID 219437)","PubChem SID":"SID315463164","TNF reporter robust z-score":0.18}
{"target":"PHLDB1 (GeneID 23187)","PubChem SID":"SID315455055","TNF reporter robust z-score":0.1}
{"target":"PHLDB1 (GeneID 23187)","PubChem SID":"SID315455055","TNF reporter robust z-score":0.79}
{"target":"PHLDB1 (GeneID 23187)","PubChem SID":"SID315455055","TNF reporter robust z-score":-0.77}
{"target":"PHLDB1 (GeneID 23187)","PubChem SID":"SID315455055","TNF reporter robust z-score":-0.09}
{"target":"BMS1 (GeneID 9790)","PubChem SID":"SID315453569","TNF reporter robust z-score":-1.15}
{"target":"BMS1 (GeneID 9790)","PubChem SID":"SID315453569","TNF reporter robust z-score":-1.21}
{"target":"BMS1 (GeneID 9790)","PubChem SID":"SID315453569","TNF reporter robust z-score":"-1.59 (active)"}
{"target":"BMS1 (GeneID 9790)","PubChem SID":"SID315453569","TNF reporter robust z-score":"-1.72 (active)"}

Not a retest: an excerpt of the list.
{"target":"OR5L1 (GeneID 219437)","PubChem SID":"SID315463164","TNF reporter robust z-score":-0.3}
{"target":"OR5L1 (GeneID 219437)","PubChem SID":"SID315463164","TNF reporter robust z-score":-0.05}
{"target":"OR5L1 (GeneID 219437)","PubChem SID":"SID315463164","TNF reporter robust z-score":0.18}
{"target":"PHLDB1 (GeneID 23187)","PubChem SID":"SID315455055","TNF reporter robust z-score":0.1}
{"target":"PHLDB1 (GeneID 23187)","PubChem SID":"SID315455055","TNF reporter robust z-score":0.79}
